{"source": "PubChem BioAssay AID1259405 – NCATS | 2018", "test": "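Silenced genes that increase secreted GFP made by CHO cells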 (primary screen)", "cells": "Chinese hamster CHO-K1 ovary cells with stable secreted eGFP expression", "reagents": "single siRNA against mouse genes, 0.8 pmol siRNA per well (2 µl of 400 nM stock)", "timing": "3 days", "read-out": "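Per-well intracellular GFP measured by laser scanning cytometry, plus viability from ATP luminescence, each relative to plate median of non-targeting control wells, in %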", "scale": "GFP, % of control: higher = more GFP per well, higher productivity; viability (ATP), % of control: higher = more viable cells (more ATP)", "rule for the call": "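Called active when intracellular GFP, relative to negative control, is at or above 120%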", "note": "Here is an unselected part of about 50,000 reagents tested. Of all reagents, about 4,000 (8%) are marked active. 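Mouse siRNA library applied to hamster cells; one well for each siRNA.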"}
{"gene symbol": "Cdh22", "PubChem SID": "SID363572996", "GFP, % of control": 88.8, "viability (ATP), % of control": 103, "Outcome": "inactive"}
{"gene symbol": "Cdh22", "PubChem SID": "SID363577572", "GFP, % of control": 68.7, "viability (ATP), % of control": 39.5, "Outcome": "inactive"}
{"gene symbol": "Cdh22", "PubChem SID": "SID363581092", "GFP, % of control": 55.9, "viability (ATP), % of control": 79.5, "Outcome": "inactive"}
{"gene symbol": "Mgat4e", "PubChem SID": "SID363545203", "GFP, % of control": 172, "viability (ATP), % of control": 100, "Outcome": "active"}
{"gene symbol": "Mgat4e", "PubChem SID": "SID363548716", "GFP, % of control": 104, "viability (ATP), % of control": 76.3, "Outcome": "inactive"}
{"gene symbol": "Mgat4e", "PubChem SID": "SID363562522", "GFP, % of control": 58.8, "viability (ATP), % of control": 71.3, "Outcome": "inactive"}
{"gene symbol": "Tmc3", "PubChem SID": "SID363547784", "GFP, % of control": 71.8, "viability (ATP), % of control": 93.6, "Outcome": "inactive"}
{"gene symbol": "Tmc3", "PubChem SID": "SID363558553", "GFP, % of control": 50.4, "viability (ATP), % of control": 64.4, "Outcome": "inactive"}
{"gene symbol": "Tmc3", "PubChem SID": "SID363560311", "GFP, % of control": 79.9, "viability (ATP), % of control": 92.1, "Outcome": "inactive"}
{"gene symbol": "Ifitm10", "PubChem SID": "SID363552203", "GFP, % of control": 66.3, "viability (ATP), % of control": 63.8, "Outcome": "inactive"}
{"gene symbol": "Ifitm10", "PubChem SID": "SID363585339", "GFP, % of control": 83.4, "viability (ATP), % of control": 85, "Outcome": "inactive"}
{"gene symbol": "Ifitm10", "PubChem SID": "SID363585690", "GFP, % of control": 116, "viability (ATP), % of control": 122, "Outcome": "inactive"}
{"gene symbol": "Tuba3a", "PubChem SID": "SID363545672", "GFP, % of control": 65.8, "viability (ATP), % of control": 57.4, "Outcome": "inactive"}
{"gene symbol": "Tuba3a", "PubChem SID": "SID363549185", "GFP, % of control": 65.7, "viability (ATP), % of control": 105, "Outcome": "inactive"}
{"gene symbol": "Tuba3a", "PubChem SID": "SID363562991", "GFP, % of control": 62.9, "viability (ATP), % of control": 58.1, "Outcome": "inactive"}
{"gene symbol": "Gm4814", "PubChem SID": "SID363550123", "GFP, % of control": 64.5, "viability (ATP), % of control": 65.3, "Outcome": "inactive"}
{"gene symbol": "Gm4814", "PubChem SID": "SID363564632", "GFP, % of control": 79.6, "viability (ATP), % of control": 98.1, "Outcome": "inactive"}
{"gene symbol": "Gm4814", "PubChem SID": "SID363588177", "GFP, % of control": 110, "viability (ATP), % of control": 121, "Outcome": "inactive"}
{"gene symbol": "Slirp", "PubChem SID": "SID363545861", "GFP, % of control": 96.8, "viability (ATP), % of control": 45.9, "Outcome": "inactive"}
{"gene symbol": "Slirp", "PubChem SID": "SID363549374", "GFP, % of control": 53.3, "viability (ATP), % of control": 61.5, "Outcome": "inactive"}
{"gene symbol": "Slirp", "PubChem SID": "SID363563180", "GFP, % of control": 52, "viability (ATP), % of control": 35.3, "Outcome": "inactive"}
{"gene symbol": "Naa10", "PubChem SID": "SID363570564", "GFP, % of control": 58.7, "viability (ATP), % of control": 68.6, "Outcome": "inactive"}
{"gene symbol": "Naa10", "PubChem SID": "SID363579364", "GFP, % of control": 77.5, "viability (ATP), % of control": 89.4, "Outcome": "inactive"}
{"gene symbol": "Naa10", "PubChem SID": "SID363583236", "GFP, % of control": 89.1, "viability (ATP), % of control": 87.2, "Outcome": "inactive"}
{"gene symbol": "Pum2", "PubChem SID": "SID363569051", "GFP, % of control": 103, "viability (ATP), % of control": 81.3, "Outcome": "inactive"}
{"gene symbol": "Pum2", "PubChem SID": "SID363583483", "GFP, % of control": 100, "viability (ATP), % of control": 85.4, "Outcome": "inactive"}
{"gene symbol": "Zfp85os", "PubChem SID": "SID363542451", "GFP, % of control": 112, "viability (ATP), % of control": 90.1, "Outcome": "inactive"}
{"gene symbol": "Zfp85os", "PubChem SID": "SID363551942", "GFP, % of control": 58.3, "viability (ATP), % of control": 61.4, "Outcome": "inactive"}
{"gene symbol": "Zfp85os", "PubChem SID": "SID363559547", "GFP, % of control": 105, "viability (ATP), % of control": 124, "Outcome": "inactive"}
